Results reported in PMC12674617.

Amino acid sequences for entries named in this document (tags omitted). A change or cut given only in a name is not applied to a line headed by its entry.
UniProt Q8TD16: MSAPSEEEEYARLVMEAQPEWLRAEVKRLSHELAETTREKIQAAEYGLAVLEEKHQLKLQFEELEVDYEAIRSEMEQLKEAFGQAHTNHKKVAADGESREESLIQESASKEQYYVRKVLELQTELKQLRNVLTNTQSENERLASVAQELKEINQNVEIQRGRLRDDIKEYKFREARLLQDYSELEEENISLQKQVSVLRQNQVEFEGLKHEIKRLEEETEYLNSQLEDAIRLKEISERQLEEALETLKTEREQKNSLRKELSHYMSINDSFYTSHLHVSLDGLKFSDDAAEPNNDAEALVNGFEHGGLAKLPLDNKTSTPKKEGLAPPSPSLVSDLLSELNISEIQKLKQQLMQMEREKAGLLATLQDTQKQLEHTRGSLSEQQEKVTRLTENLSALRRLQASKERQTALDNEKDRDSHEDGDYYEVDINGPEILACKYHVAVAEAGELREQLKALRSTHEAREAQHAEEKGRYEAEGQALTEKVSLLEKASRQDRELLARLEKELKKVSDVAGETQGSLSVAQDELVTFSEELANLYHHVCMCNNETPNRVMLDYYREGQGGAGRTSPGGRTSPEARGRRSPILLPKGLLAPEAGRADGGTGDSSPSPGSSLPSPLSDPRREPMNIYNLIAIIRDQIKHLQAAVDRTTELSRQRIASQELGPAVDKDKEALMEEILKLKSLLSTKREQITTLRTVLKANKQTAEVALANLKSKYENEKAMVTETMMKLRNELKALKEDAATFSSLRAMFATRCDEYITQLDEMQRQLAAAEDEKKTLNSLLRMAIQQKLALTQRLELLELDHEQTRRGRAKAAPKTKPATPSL
UniProt Q1MSJ5: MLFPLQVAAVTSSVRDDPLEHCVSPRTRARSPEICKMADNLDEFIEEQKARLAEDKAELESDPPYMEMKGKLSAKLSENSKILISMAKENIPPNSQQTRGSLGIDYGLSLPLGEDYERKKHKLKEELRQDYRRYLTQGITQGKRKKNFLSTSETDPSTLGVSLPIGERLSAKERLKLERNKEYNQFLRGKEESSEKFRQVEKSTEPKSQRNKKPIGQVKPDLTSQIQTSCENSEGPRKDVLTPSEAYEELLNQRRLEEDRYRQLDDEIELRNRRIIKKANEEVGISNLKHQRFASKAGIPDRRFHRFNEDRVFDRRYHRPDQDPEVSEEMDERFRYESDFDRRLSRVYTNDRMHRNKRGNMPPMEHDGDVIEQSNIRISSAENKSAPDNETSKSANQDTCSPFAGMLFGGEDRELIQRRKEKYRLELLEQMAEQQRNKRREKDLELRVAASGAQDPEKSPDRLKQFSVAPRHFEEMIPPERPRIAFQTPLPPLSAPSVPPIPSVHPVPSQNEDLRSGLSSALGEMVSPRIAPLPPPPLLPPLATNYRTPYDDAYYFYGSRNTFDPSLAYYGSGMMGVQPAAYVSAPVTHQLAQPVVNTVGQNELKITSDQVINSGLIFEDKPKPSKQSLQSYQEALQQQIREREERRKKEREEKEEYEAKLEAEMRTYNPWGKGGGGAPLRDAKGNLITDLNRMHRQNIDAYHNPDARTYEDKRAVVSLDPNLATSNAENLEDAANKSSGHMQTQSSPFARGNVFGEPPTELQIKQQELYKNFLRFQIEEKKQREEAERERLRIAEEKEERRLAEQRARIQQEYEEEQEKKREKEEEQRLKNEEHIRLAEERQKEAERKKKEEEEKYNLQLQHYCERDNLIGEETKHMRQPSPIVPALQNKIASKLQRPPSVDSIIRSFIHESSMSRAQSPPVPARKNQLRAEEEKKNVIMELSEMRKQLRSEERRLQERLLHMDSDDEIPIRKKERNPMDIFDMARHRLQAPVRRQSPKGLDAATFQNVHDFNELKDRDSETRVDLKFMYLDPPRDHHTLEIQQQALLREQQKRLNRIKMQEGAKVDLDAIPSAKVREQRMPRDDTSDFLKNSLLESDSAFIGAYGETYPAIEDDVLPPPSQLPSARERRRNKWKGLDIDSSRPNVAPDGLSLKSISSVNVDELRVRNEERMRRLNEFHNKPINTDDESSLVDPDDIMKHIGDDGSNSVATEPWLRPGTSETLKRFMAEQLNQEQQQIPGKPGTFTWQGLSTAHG
UniProt P33176: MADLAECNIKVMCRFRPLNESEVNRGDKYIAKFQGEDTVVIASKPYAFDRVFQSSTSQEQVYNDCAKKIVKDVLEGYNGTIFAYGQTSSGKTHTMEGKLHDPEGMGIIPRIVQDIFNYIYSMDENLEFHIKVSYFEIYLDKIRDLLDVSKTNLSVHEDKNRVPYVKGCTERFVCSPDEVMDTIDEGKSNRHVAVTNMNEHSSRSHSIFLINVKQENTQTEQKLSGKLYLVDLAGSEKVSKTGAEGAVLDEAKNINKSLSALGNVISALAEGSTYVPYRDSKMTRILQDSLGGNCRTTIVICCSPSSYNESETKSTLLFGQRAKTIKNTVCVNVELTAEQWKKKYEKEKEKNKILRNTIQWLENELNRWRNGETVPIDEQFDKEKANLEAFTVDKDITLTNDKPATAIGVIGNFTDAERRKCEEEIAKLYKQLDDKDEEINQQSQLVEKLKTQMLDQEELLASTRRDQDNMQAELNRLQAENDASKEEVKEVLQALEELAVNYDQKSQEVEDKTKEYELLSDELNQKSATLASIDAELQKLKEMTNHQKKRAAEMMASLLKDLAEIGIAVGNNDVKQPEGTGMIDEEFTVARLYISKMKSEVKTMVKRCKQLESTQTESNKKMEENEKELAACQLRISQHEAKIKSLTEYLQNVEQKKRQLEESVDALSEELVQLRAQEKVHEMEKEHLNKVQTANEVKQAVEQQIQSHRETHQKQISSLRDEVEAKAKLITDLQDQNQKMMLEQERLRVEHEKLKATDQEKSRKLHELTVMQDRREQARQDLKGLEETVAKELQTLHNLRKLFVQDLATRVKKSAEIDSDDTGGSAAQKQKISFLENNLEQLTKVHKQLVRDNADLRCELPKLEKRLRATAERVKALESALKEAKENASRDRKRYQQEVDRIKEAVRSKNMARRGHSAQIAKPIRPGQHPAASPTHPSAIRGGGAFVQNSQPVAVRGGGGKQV
UniProt P53350: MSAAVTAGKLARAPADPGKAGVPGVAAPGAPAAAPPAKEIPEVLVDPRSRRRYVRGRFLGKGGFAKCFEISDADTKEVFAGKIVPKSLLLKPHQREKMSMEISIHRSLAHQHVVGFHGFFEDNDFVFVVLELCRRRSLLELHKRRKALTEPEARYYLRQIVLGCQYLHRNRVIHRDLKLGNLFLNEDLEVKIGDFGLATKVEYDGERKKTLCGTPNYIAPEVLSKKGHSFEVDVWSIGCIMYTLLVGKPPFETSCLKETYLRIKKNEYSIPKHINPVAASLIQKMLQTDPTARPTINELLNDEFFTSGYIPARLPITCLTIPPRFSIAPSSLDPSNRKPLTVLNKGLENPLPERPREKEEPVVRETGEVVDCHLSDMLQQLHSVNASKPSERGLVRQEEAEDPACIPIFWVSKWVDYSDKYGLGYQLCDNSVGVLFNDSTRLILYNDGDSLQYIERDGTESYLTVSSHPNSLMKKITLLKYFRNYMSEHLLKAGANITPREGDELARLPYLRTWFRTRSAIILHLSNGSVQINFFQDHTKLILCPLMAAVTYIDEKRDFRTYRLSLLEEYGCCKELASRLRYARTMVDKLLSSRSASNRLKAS

Tests used:
[1] = target: BICD2_N188T-mTrbo (human) (UniProt Q8TD16); assay: proximity labelling; mini-TurboID fusions in HEK Flp-In T-REx 293 cells, Tet 1 µg/ml 24 hr, biotin 500 µM 40 min; lysate in RIPA buffer, 1 mg protein, streptavidin agarose beads overnight at 4 °C, four RIPA washes, western blot; also in cells treated with siRNA to BICD2, VPS41 or RANBP2
[2] = target: BICD2_R694C-mTrbo (human) (UniProt Q8TD16); assay: as above
[3] = target: BICD2_R747C-mTrbo (human) (UniProt Q8TD16); assay: as above
[4] = target: BICD2_N188T-mTrbo (human) (UniProt Q8TD16); assay: proximity labelling; mini-TurboID fusions in HEK Flp-In T-REx 293 cells, biotin labelling; 5 mg lysate protein, streptavidin magnetic beads overnight at 4 °C, washes with RIPA, high-salt RIPA (1 M NaCl) and PBS; mass spectrometry, triplicate; hits at least twofold against RFP-mTrbo (or mutant against wild type) with p value 0.05
[5] = target: BICD2_R694C-mTrbo (human) (UniProt Q8TD16); assay: as above
[6] = target: BICD2_R747C-mTrbo (human) (UniProt Q8TD16); assay: as above
[7] = target: full-length BICD2 tagged on the C-terminus with mini-TurboID (BICD2-mTrbo) (human) (UniProt Q8TD16); assay: proximity labelling; mini-TurboID fusions in HEK Flp-In T-REx 293 cells, Tet 1 µg/ml 24 hr, biotin 500 µM 40 min; lysate in RIPA buffer, 1 mg protein, streptavidin agarose beads overnight at 4 °C, four RIPA washes, western blot; also in cells treated with siRNA to BICD2, VPS41 or RANBP2
[8] = target: full-length BICD2 tagged on the C-terminus with mini-TurboID (BICD2-mTrbo) (human) (UniProt Q8TD16); assay: proximity labelling; mini-TurboID fusions in HEK Flp-In T-REx 293 cells, biotin labelling; 5 mg lysate protein, streptavidin magnetic beads overnight at 4 °C, washes with RIPA, high-salt RIPA (1 M NaCl) and PBS; mass spectrometry, triplicate; hits at least twofold against RFP-mTrbo (or mutant against wild type) with p value 0.05

Which results are given for CSPP1 (from UniProt Q1MSJ5 1-1256)?
binding [1]: binds; binding [2]: binds; binding [3]: binds; binding [4]: binds; binding [5]: binds; binding [6]: binds

KIF5B (from UniProt P33176 1-963) was tested. Which binding [1] did it give?
The binding was “binds weakly”.

And the binding [2]?
The binding was “binds weakly”.

And the binding [7]?
The binding was “binds weakly”.

How did the binding [8] turn out when PLK1 (from UniProt P53350 1-603) was run?
The binding was “binds”.

No constants are given. Whether binding was seen depends on the method and setting. Binding seen in cells or lysates may run through a third protein. Here binding means that the protein was enriched with, or labelled near, the bait; the list need not be complete.
